According to paper PMC9427776, “TTYH family members form tetrameric complexes at the cell membrane” (Communications Biology, 2022):
No constants are given. Whether binding was seen depends on the method and setting. Some binding calls cover weakened binding; strength is not graded here. Where a sequence is shown, tags or fusion partners need not be part of it.

Key:
mTTYH3-GFP C299A (mouse) = mTTYH3-GFP C299A (mouse) (UniProt Q6P5F7); assay: SEC; FSEC of HEK 293 cells solubilised in 1% DDM, Superdex 200 Increase, 150 mM NaCl, 50 mM Tris-HCl pH 7.5, 1 mM DDM; EGFP fluorescence; also after 10 min at 20-80 C (FSEC-TS) or with 20 mM 2-ME, both of which shift the population toward dimers
mTTYH3-GFP C366A (mouse) = mTTYH3-GFP C366A (mouse) (UniProt Q6P5F7); assay: as above

B1: mTTYH3-GFP C299A (protein, UniProt Q6P5F7 1-524)
chain: MAGVSYAAPWWVSLLHRLPHFDLRWEATSSQFRPEDADYQQALLLLGATALACLALDLLFLLFYSFWLCCRRRKTDEHLDADCCCTAWCVIITTLVCSAGIAVGFYGNGETSDGIHRATYSLRHANRTVAGVQDRVWDTAAALNRTAEPNLQSLERQLAGRQEPLRAVQRLQTLLGTLLGYTAAIPFWRNPGVSLEVLAEQVDLYDWYRWLGYLGLLLLDVIICLLVLVGLIRSSKGILVGVCLLGVLALVISWGALGLELAVSVGSSDFCVDPDTFVTKMVEEHSVLSGDILQYYLAASPRATNPFQQKLSGSHKALVEMQDVVAELLRNVPREHPATKDPLLRVQEVLNGTEVNLQHLTALVDCRSLHLDYVQALTGFCYDGVEGLIYLALFSFVTALMFSSIVCSIPHTWQQKRGPDDDGEEETAPGPRQAHDSLYRVHMPSLYSCGSSYGSEASIPAAAHTVSNAPVTEYMSQNANFQNPRCENTPLIGRESPPPSYTSSMRAKYLATSQPRPDSSGSGH
B1 was tested, and the binding (mTTYH3-GFP C299A (mouse)) was “binds”.

B2: mTTYH3-GFP C366A (protein, UniProt Q6P5F7 1-524)
chain: MAGVSYAAPWWVSLLHRLPHFDLRWEATSSQFRPEDADYQQALLLLGATALACLALDLLFLLFYSFWLCCRRRKTDEHLDADCCCTAWCVIITTLVCSAGIAVGFYGNGETSDGIHRATYSLRHANRTVAGVQDRVWDTAAALNRTAEPNLQSLERQLAGRQEPLRAVQRLQTLLGTLLGYTAAIPFWRNPGVSLEVLAEQVDLYDWYRWLGYLGLLLLDVIICLLVLVGLIRSSKGILVGVCLLGVLALVISWGALGLELAVSVGSSDFCVDPDTFVTKMVEEHSVLSGDILQYYLACSPRATNPFQQKLSGSHKALVEMQDVVAELLRNVPREHPATKDPLLRVQEVLNGTEVNLQHLTALVDARSLHLDYVQALTGFCYDGVEGLIYLALFSFVTALMFSSIVCSIPHTWQQKRGPDDDGEEETAPGPRQAHDSLYRVHMPSLYSCGSSYGSEASIPAAAHTVSNAPVTEYMSQNANFQNPRCENTPLIGRESPPPSYTSSMRAKYLATSQPRPDSSGSGH
With B2 the binding (mTTYH3-GFP C366A (mouse)) was “binds”.
